According to the supplement of paper PMC7830784:
Structures can show the parent of a compound that is named as a salt. This is one part of the list. This data set is noisy: repeats of one test often differ as much as different tests do.

What follows are compounds tested on Brugia pahangi adult female (assay: motility inhibition on day 3 relative to DMSO vehicle; higher = more active). Conditions: 10 µM; 3 days.

SMILES | motility inhibition on day 3 [%]
COc1cc(NS(C)(=O)=O)ccc1Nc1c2ccccc2nc2ccccc12 [amsacrine] | 8.09
CCN1CCN(c2cc3c(cc2F)c(=O)c(C(=O)O)cn3C2CC2)CC1 [enrofloxacin] | 2.46
O=C1C2CC3CC1CC(O)(C3)C2 [idramantone] | 0.446
Cc1nnc(NS(=O)(=O)c2ccc(N)cc2)s1 [sulfamethizole] | 22
CC1CC(OC(=O)C(O)c2ccccc2)CC(C)(C)N1C (stereo not given) [eucatropine hydrochloride] | 54.4
C1CCN2C[C@@H]3C[C@@H](CN4CCCC[C@@H]34)[C@H]2C1 [sparteine sulfate] | 5.16
CC1Cc2ccccc2N1NC(=O)c1ccc(Cl)c(S(N)(=O)=O)c1 (stereo not given) [indapamide] | 31.2
FC(F)(Cl)C(F)(F)Cl [cryoflurane] | < 0
CCC(=O)c1c(O)cc(O)cc1O [flopropione] | 5.41
CO/N=C(\C(=O)N[C@@H]1C(=O)N2C(C(=O)O)=C(COC(N)=O)CS[C@H]12)c1ccco1 [cefuroxime sodium] | < 0
O=C(NCC(O)CO)c1c(I)c(C(=O)NCC(O)CO)c(I)c(N(CCO)C(=O)CO)c1I (stereo not given) [ioversol] | 49.6
Nc1ccc(S(=O)(=O)Nc2ccnn2-c2ccccc2)cc1 [Sulfaphenazole] | < 0
CC12CCC(CC1)C(C)(C)O2 [eucalyptol] | 17.1
CC(=O)Nc1ncc([N+](=O)[O-])s1 [nithiamide] | 13.6
CCCCCCCCCCCCCCCC(=O)O[C@@H]1[C@@H](O)[C@@H](O)[C@@H]([C@H](NC(=O)[C@@H]2C[C@@H](CCC)CN2C)[C@H](C)Cl)O[C@@H]1SC [clindamycin palmitate hydrochloride] | 4.01
Cc1cc(CC(=O)O)n(C)c1C(=O)c1ccc(Cl)cc1 [zomepirac sodium] | 7.27
Nc1ccc2cc3ccc(N)cc3nc2c1 [proflavine hemisulfate] | 88.8
CC(C)C[C@@H]1NC(=O)[C@H](CCCN)NC(=O)[C@H](C(C)C)NC(=O)[C@H](Cc2ccc(O)cc2)N[C@@H](CCC(=O)O)C(=O)N[C@@H](CC(N)=O)C(=O)[C@@H](Cc2ccccc2)NC(=O)[C@H](Cc2ccccc2)NC(=O)[C@@H]2CCCN2C(=O)[C@@H](Cc2ccccc2)NC1=O [tyrothricin] | 41.9
CC[C@H]1OC(=O)[C@H](C)[C@@H](O[C@H]2C[C@@](C)(OC)[C@@H](O)[C@H](C)O2)[C@H](C)[C@@H](O[C@@H]2O[C@H](C)C[C@H](N(C)C)[C@H]2O)[C@](C)(O)C[C@@H](C)[C@@H]2N[C@@H](COCCOC)O[C@H]([C@H]2C)[C@]1(C)O [dirithromycin] | 6.81
O=C1CC2(CCCC2)CC(=O)N1CCCCN1CCN(c2ncccn2)CC1 [Buspirone hydrochloride] | < 0
O=c1cc[nH]c(=S)[nH]1 [2-thiouracil] | < 0
CC(=O)OC1CC2CCC1(C)C2(C)C (stereo not given) [bornyl acetate] | < 0
CC(=O)O[C@]1(C(C)=O)CC[C@H]2[C@@H]3C[C@H](C)C4=CC(=O)CC[C@]4(C)[C@H]3CC[C@@]21C [medroxyprogesterone acetate] | 19.4
O=C(O)c1cc(-c2ccccc2)nc2ccccc12 [cinchophen] | < 0
CC(C)NCC(O)c1ccc2ccccc2c1 (stereo not given) [pronetalol hydrochloride] | 15.8

SMILES | motility inhibition on day 3 [%]
CN(C)c1nc(N(C)C)nc(N(C)C)n1 [altretamine] | 8.02
COc1ccccc1OCC(O)CN1CCN(CC(=O)Nc2c(C)cccc2C)CC1 (stereo not given) [ranolazine] | 4.05
CCCNCC(O)COc1ccccc1C(=O)CCc1ccccc1 (stereo not given) [propafenone hydrochloride] | < 0
NC(=O)C(c1ccccc1)(c1ccccc1)[C@@H]1CCN(CCc2ccc3c(c2)CCO3)C1 [darifenacin hydrobromide] | 9.69
C[C@H]1C[C@@H]2[C@H]([C@@H](O)C[C@@]3(C)[C@H]2CC[C@]3(O)C(=O)CO)[C@@]2(C)C=CC(=O)C=C12 [methylprednisolone] | 14.8
COc1ccc(C2CNC(=O)C2)cc1OC1CCCC1 (stereo not given) [Rolipram] | 4.69
CCCCC(F)(F)[C@@]1(O)CC[C@H]2[C@@H](CC(=O)[C@@H]2CCCCCCC(=O)O)O1 [Lubiprostone] | 1.45
NC(=O)c1ccc([N+](=O)[O-])cc1Cl [aklomide] | 16
CC(C)[C@H](N)C(=O)OCC(CO)OCn1cnc2c(=O)nc(N)[nH]c21 (stereo not given in full) [valganciclovir hydrochloride] | 8.89
O=C1OCCN1/N=C/c1ccc([N+](=O)[O-])o1 [furazolidone] | 27.6
c1ccc([C@H]2CN3CCSC3=N2)cc1 [levamisole hydrochloride] | 65.8
CCC(=O)O[C@]1(C(=O)CCl)[C@@H](C)C[C@H]2[C@@H]3CCC4=CC(=O)C=C[C@]4(C)[C@@]3(F)[C@@H](O)C[C@@]21C [clobetasol propionate] | 0.554
Cc1c(O)c(=O)ccn1C [deferiprone] | < 0
CC(=O)OCC(CCn1cnc2cnc(N)nc21)COC(C)=O [famciclovir] | < 0
NNc1nncc2ccccc12 [hydralazine hydrochloride] | < 0
NCC(O)CC(=O)O (stereo not given) [aminohydroxybutyric acid] | 1.23
C[C@H](CCC(=O)O)[C@H]1CC[C@H]2[C@@H]3[C@H](O)C[C@@H]4C[C@H](O)CC[C@]4(C)[C@H]3CC[C@]12C [chenodiol] | 18.2
Nc1cc(C(Cl)=C(Cl)Cl)c(S(N)(=O)=O)cc1S(N)(=O)=O [clorsulon] | 17.3
COc1c2occc2c(OC)c2c(=O)cc(C)oc12 [khellin] | < 0
C1CNCCN1 [piperazine] | < 0
CC(=O)[C@]1(O)Cc2c(O)c3c(c(O)c2[C@@H](O[C@H]2C[C@H](N)[C@H](O)[C@H](C)O2)C1)C(=O)c1ccccc1C3=O | 7.73
O=c1oc2ccccc2c(O)c1Cc1c(O)c2ccccc2oc1=O [dicumarol] | 9.46
CN1CCN(CCCN2c3ccccc3Sc3ccc(Cl)cc32)CC1 [Prochlorperazine dimaleate] | < 0
CCN(CC)CCc1nc(-c2ccccc2)no1 [oxolamine citrate] | 15.9
O=S(=O)(O)NC1CCCCC1 [cyclamic acid] | < 0

SMILES | motility inhibition on day 3 [%]
CCc1cn([C@H]2C[C@H](O)[C@@H](CO)O2)c(=O)[nH]c1=O [edoxudine] | < 0
CC(C)NC[C@@H](O)COc1cccc2ccccc12 [dexpropranolol hydrochloride] | 23.6
CC(NCCC(c1ccccc1)c1ccccc1)c1ccccc1 (stereo not given) [fendiline hydrochloride] | < 0
Cc1c(N(C)CS(=O)(=O)O)c(=O)n(-c2ccccc2)n1C [dipyrone] | < 0
CN(C)[C@@H]1C(O)=C(C(=O)NCN2CCCC2)C(=O)[C@@]2(O)C(O)=C3C(=O)c4c(O)cccc4[C@@](C)(O)[C@H]3C[C@@H]12 [rolitetracycline] | 13.9
CC(C)/N=c1\cc2n(-c3ccc(Cl)cc3)c3ccccc3nc-2cc1Nc1ccc(Cl)cc1 [clofazimine] | 51
O=C1Cc2cc(CCN3CCN(c4nsc5ccccc45)CC3)c(Cl)cc2N1 [ziprasidone mesylate] | 5.74
CCN[C@H]1C[C@H](C)S(=O)(=O)c2sc(S(N)(=O)=O)cc21 [Dorzolamide??HCl] | 12.8
CC(=O)N(O)CCCCCNC(=O)CCC(=O)N(O)CCCCCNC(=O)CCC(=O)N(O)CCCCCN [deferoxamine mesylate] | 56.4
CC(C)(C(=O)c1cccnc1)c1cccnc1 [metyrapone] | 22.7
CN1CC(=O)NC1=N [creatinine] | 2.67
C[C@]12CC[C@@H]3c4ccc(O)cc4CC[C@H]3[C@@H]1CC[C@@H]2OC(=O)CCC1CCCC1 [estradiol cypionate] | 0.0736
CCC(NC(C)C)C(O)c1ccc(O)c(O)c1 (stereo not given) [isoetharine mesylate] | 4.46
CCC(Cc1c(I)cc(I)c(N)c1I)C(=O)O (stereo not given) [iopanic acid] | 9.88
CN1CCc2cccc3c2[C@H]1Cc1ccc(O)c(O)c1-3 [apomorphine hydrochloride] | 53.3
CN1CCc2cccc3c2[C@H]1Cc1ccc(O)c(O)c1-3 [R(-)-Apomorphine hydrochloride] | 1.77
CCOC(=O)C(C)(C)Oc1ccc(Cl)cc1 [Clofibrate] | 16.8
CO[C@@]1(NC(=O)CSCC#N)C(=O)N2C(C(=O)O)=C(CSc3nnnn3C)CS[C@@H]21 [cefmetazole sodium] | 9.32
C[C@@H]1[C@H](O)[C@@H](C)/C=C/C=C/C=C/C=C/C=C/C=C/C=C/[C@H](O[C@@H]2O[C@H](C)[C@@H](O)[C@H](N)[C@@H]2O)C[C@@H]2O[C@](O)(C[C@@H](O)C[C@@H](O)[C@H](O)CC[C@@H](O)C[C@@H](O)CC(=O)O[C@H]1C)C[C@H](O)[C@H]2C(=O)O [amphotericin b] | 34.5
Nc1ncnc(Nc2ccc(Cl)cc2)n1 [chlorazanil hydrochloride] | 37.4
CCCCCCCCCCCCCCCC(=O)NCCO [palmidrol] | 4.69
CN1CCN(C2=Nc3cc(Cl)ccc3Nc3ccccc32)CC1 [Clozapine] | 1.19
NC12CC3CC(CC(C3)C1)C2 [Amantadine hydrochloride] | 6.41
CO[C@H]1O[C@@H]2O[C@@]3(C)CC[C@H]4[C@H](C)CC[C@@H]([C@H]1C)[C@@]24OO3 [artemether] | 19.2
Cc1cc(=O)n(-c2ccccc2)n1C [antipyrine] | 2.22

For convenience, part of the list above:
SMILES | motility inhibition on day 3 [%]
CCOC(=O)C(C)(C)Oc1ccc(Cl)cc1 [Clofibrate] | 16.8
CO[C@@]1(NC(=O)CSCC#N)C(=O)N2C(C(=O)O)=C(CSc3nnnn3C)CS[C@@H]21 [cefmetazole sodium] | 9.32
C[C@@H]1[C@H](O)[C@@H](C)/C=C/C=C/C=C/C=C/C=C/C=C/C=C/[C@H](O[C@@H]2O[C@H](C)[C@@H](O)[C@H](N)[C@@H]2O)C[C@@H]2O[C@](O)(C[C@@H](O)C[C@@H](O)[C@H](O)CC[C@@H](O)C[C@@H](O)CC(=O)O[C@H]1C)C[C@H](O)[C@H]2C(=O)O [amphotericin b] | 34.5
Nc1ncnc(Nc2ccc(Cl)cc2)n1 [chlorazanil hydrochloride] | 37.4
